From patent publication US8742112B2, “Heterocyclic compound and its use for control of an arthropod pest” (Sumitomo Chemical Company, Limited, priority 2009, dated 2014)
Some of these results come from one statement about several compounds together. For at least one compound, name, drawing or mass did not settle the structure.

tested on: Aphis gossypii; assay: Test Example 1: foliar spray on cucumber seedling inoculated with Aphis gossypii; type: in vivo; details: 500 ppm, 20 ml sprayed on cucumber seedling, six days after spraying, Formulation Example 5

SMILES	Control value
Fc1cnccc1-c1nc2cc(C(F)(F)F)ccc2s1 [compound 1]	≥ 90%
FC(F)(F)c1ccc2sc(-c3ccncc3Cl)nc2c1 [compound 2]	≥ 90%
FC(F)(F)Oc1ccc2nc(-c3ccncc3Cl)sc2c1 [compound 19]	≥ 90%

tested on: Aphis gossypii; assay: Test Example 2: root immersion of cucumber seedling, then inoculation with Aphis gossypii; type: in vivo; details: 500 ppm, 5 ml, cucumber root part immersed, inoculated one day after, checked 7 days after, Formulation Example 5

SMILES	Control value
CCS(=O)(=O)c1cnccc1-c1nc2cc(C(F)(F)F)ccc2s1 [compound 7]	≥ 90%
Fc1cnccc1-c1nc2cc(C(F)(F)F)cnc2s1 [compound 9]	≥ 90%
COc1cnccc1-c1nc2cc(C(F)(F)F)cnc2s1 [compound 12]	≥ 90%
CSc1cnccc1-c1nc2cc(C(F)(F)F)cnc2s1 [compound 14]	≥ 90%
CCS(=O)(=O)c1cnccc1-c1nc2cc(C(F)(F)F)cnc2s1 [compound 16]	≥ 90%
CC[S+]([O-])c1cnccc1-c1nc2cc(C(F)(F)F)cnc2s1 (stereo not drawn) [compound 17]	≥ 90%
